PubChem BioAssay AID743454 | Peter MacCallum Cancer Centre – 2014
Screen: 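Genes whose loss kills vorinostat-resistant colon cancer cells under vorinostat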 (primary screen). Cells: human HCT116-VR colon cancer cells, selected for vorinostat resistance. Reagents: siRNA pool against human genes, 40 nM siRNA pool. Time to read-out: vorinostat for 24 h, read-out about 72 h after transfection. Challenge: vorinostat at 2.5 µM final. Read-out: 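Cell viability by CellTiter-Fluor and caspase 3/7 activity by luminescence, each scaled to mock wells per plate, duplicates averaged, then robust z-scored over all plates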. Reading the numbers: viability robust z-score: higher = more viable cells than screen typical; caspase robust z-score: higher = more caspase 3/7 activity than screen typical. Active means: 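a knock-down is a hit when classed RV1 or RV2 for lowered viability, or CA1 or CA2 for caspase activation; those lethal without drug were dropped; hits were retested singly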.
In all, the deposit lists about 18,000 reagents; shown is a part drawn at random. Of all reagents, 450 (2.5%) are marked active. 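Single biological run; no consistent viability z cut-off exists, so the class columns, not z-scores, define the calls.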

target gene	PubChem SID	viability hit class	caspase hit class	viability robust z-score	caspase robust z-score	outcome
G6PC1 (glucose-6-phosphatase catalytic subunit 1)	SID152155534	no change	no change	0.72	1.03	inactive
PIR (pirin)	SID152147163	no change	no change	-2.49	4.31	inactive
MMS19 (MMS19 cytosolic iron-sulfur assembly component)	SID152147026	no change	no change	0.58	-0.74	inactive
FXYD7 (FXYD domain containing ion transport regulator 7)	SID135622446	no change	CA1 (caspase activation)	-1.38	5.2	active
PRSS2 (serine protease 2)	SID134311435	no change	no change	0.46	-0.24	inactive
ACTR1B (actin related protein 1B)	SID134316372	no change	no change	1.42	0.82	inactive
XKRY (XK related, Y-linked (pseudogene))	SID134329968	no change	no change	0.03	4.22	inactive
ORMDL3 (ORMDL sphingolipid biosynthesis regulator 3)	SID134320967	no change	no change	-0.48	2.08	inactive
JUN (Jun proto-oncogene, AP-1 transcription factor subunit)	SID135620650	no change	no change	0.64	0.6	inactive
DBF4 (DBF4-CDC7 kinase regulatory subunit)	SID135620786	no change	no change	0.2	-0.38	inactive
DUOXA1 (dual oxidase maturation factor 1)	SID134320392	no change	no change	-2.18	0.22	inactive
GSTM1 (glutathione S-transferase mu 1)	SID152150519	no change	no change	-0.43	-0.02	inactive
TMEM69 (transmembrane protein 69)	SID135624126	no change	no change	-0.17	0.65	inactive
RNASE12 (ribonuclease A family member 12 (inactive))	SID135625378	no change	no change	0	0.12	inactive
ZPBP2 (zona pellucida binding protein 2)	SID152154329	no change	no change	-1.04	0.04	inactive
NXT2 (nuclear transport factor 2 like export factor 2)	SID134320903	no change	no change	0.26	0.06	inactive
ICMT (isoprenylcysteine carboxyl methyltransferase)	SID152151028	no change	no change	-0.92	0.23	inactive
PTTG2 (pituitary tumor-transforming 2)	SID152155370	no change	no change	0.72	-0.34	inactive
ZNF226 (zinc finger protein 226)	SID152146901	no change	no change	0.71	3.35	inactive
PHF1 (PHD finger protein 1)	SID134315698	no change	no change	-0.31	0.01	inactive
PPM1J (protein phosphatase, Mg2+/Mn2+ dependent 1J)	SID152156624	no change	no change	-0.9	0.14	inactive
KANK1 (KN motif and ankyrin repeat domains 1)	SID135622415	no change	no change	0.02	-0.04	inactive
ZNF488 (zinc finger protein 488)	SID134320290	no change	no change	-1.06	0.45	inactive
NTN3 (netrin 3)	SID134323856	no change	no change	-0.82	2.01	inactive
F3 (coagulation factor III, tissue factor)	SID134310488	no change	no change	0.58	0.55	inactive
RNH1 (ribonuclease/angiogenin inhibitor 1)	SID152154322	no change	no change	1.42	0.4	inactive
FTL (ferritin light chain)	SID152151748	no change	no change	0.94	0.7	inactive
SNX22 (sorting nexin 22)	SID152147246	no change	no change	0.9	-0.74	inactive
TEP1 (telomerase associated protein 1)	SID134316653	no change	no change	-1.21	2.93	inactive
EIF4E2 (eukaryotic translation initiation factor 4E family member 2)	SID152151941	no change	no change	-1.48	-0.76	inactive

Already shown: 9 of the entries above.
target gene	PubChem SID	viability hit class	caspase hit class	viability robust z-score	caspase robust z-score	outcome
PHF1 (PHD finger protein 1)	SID134315698	no change	no change	-0.31	0.01	inactive
PPM1J (protein phosphatase, Mg2+/Mn2+ dependent 1J)	SID152156624	no change	no change	-0.9	0.14	inactive
KANK1 (KN motif and ankyrin repeat domains 1)	SID135622415	no change	no change	0.02	-0.04	inactive
ZNF488 (zinc finger protein 488)	SID134320290	no change	no change	-1.06	0.45	inactive
NTN3 (netrin 3)	SID134323856	no change	no change	-0.82	2.01	inactive
F3 (coagulation factor III, tissue factor)	SID134310488	no change	no change	0.58	0.55	inactive
RNH1 (ribonuclease/angiogenin inhibitor 1)	SID152154322	no change	no change	1.42	0.4	inactive
FTL (ferritin light chain)	SID152151748	no change	no change	0.94	0.7	inactive
SNX22 (sorting nexin 22)	SID152147246	no change	no change	0.9	-0.74	inactive

Next records follow.
target gene	PubChem SID	viability hit class	caspase hit class	viability robust z-score	caspase robust z-score	outcome
NANS (N-acetylneuraminate synthase)	SID134317625	no change	no change	-2.49	1.34	inactive
WDR89 (WD repeat domain 89)	SID152152079	no change	no change	-2.21	0.03	inactive
TMPRSS12 (transmembrane serine protease 12)	SID152149425	no change	no change	0.41	0.72	inactive
PRPS2 (phosphoribosyl pyrophosphate synthetase 2)	SID152153546	no change	no change	0.22	-0.42	inactive
ARRDC1-AS1 (ARRDC1 antisense RNA 1)	SID152153046	no change	no change	-0.58	-0.35	inactive
APOBEC3H (apolipoprotein B mRNA editing enzyme catalytic subunit 3H)	SID134322953	no change	no change	0.34	1.86	inactive
PLXDC2 (plexin domain containing 2)	SID134319253	no change	no change	-0.08	-0.24	inactive
MGST1 (microsomal glutathione S-transferase 1)	SID134314013	no change	no change	-0.18	1.17	inactive
NDUFS2 (NADH:ubiquinone oxidoreductase core subunit S2)	SID152156422	no change	no change	-0.32	-0.34	inactive
PDP2 (pyruvate dehydrogenase phosphatase catalytic subunit 2)	SID134325434	no change	no change	-0.84	-0.65	inactive
POP4 (POP4 ribonuclease P/MRP subunit)	SID134323791	no change	no change	-0.4	-0.68	inactive
RAB33A (RAB33A, member RAS oncogene family)	SID134313092	no change	no change	-0.14	0.14	inactive
SLC45A2	SID135622462	no change	no change	0.4	-0.42	inactive
GAS2L3 (growth arrest specific 2 like 3)	SID134321828	no change	no change	2.11	0.3	inactive
PLTP (phospholipid transfer protein)	SID135621805	no change	no change	0.84	-0.6	inactive
MBOAT7	SID152152836	no change	no change	-0.38	1.15	inactive
ACTN1 (actinin alpha 1)	SID152151538	no change	no change	1.06	1.29	inactive
FAM151B (family with sequence similarity 151 member B)	SID134329391	no change	no change	-0.6	-1	inactive
ZNF92 (zinc finger protein 92)	SID134324905	no change	no change	1.36	1.3	inactive
SIX6 (SIX homeobox 6)	SID134323309	no change	no change	-0.26	-0.7	inactive
LPIN2 (lipin 2)	SID134317683	no change	no change	-0.67	-1	inactive
ALPK2 (alpha kinase 2)	SID152151764	no change	no change	-1.14	-0.36	inactive
MPPE1 (metallophosphoesterase 1)	SID152149504	no change	no change	0.44	0.15	inactive
MTCH2	SID134312419	no change	no change	-0.21	-0.3	inactive
MSH2 (mutS homolog 2)	SID134310155	no change	no change	0.05	0.82	inactive
GATAD2B (GATA zinc finger domain containing 2B)	SID135622633	no change	no change	-1.37	-0.79	inactive
PIP (prolactin induced protein)	SID134310667	no change	no change	-0.96	-0.46	inactive
